# The whole screen tested about 53,000 sequences, of which about 3,700 (7%) were called active.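 Rule for the calls: active = gene knockdowns whose robust z-score for IL-1 alpha signal is at least 2 or at most -2, so actives lie on both sides; inactive = the rest.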 The list shows a part of the results.
# Assay: Components of the Cytosolic LPS Sensing Pathway: Gene Identification via Genome-wide siRNA Screen
# Conditions: RAW264.7 macrophages, IL-1a HTRF, actives lie on both sides, screened at 100 nM (by protocol), cells primed 5 h with Pam3CSK4 first
# Source text: Non-canonical inflammasome activation by cytosolic LPS is a critical component of the host response to Gram-negative bacterial infection, however we lack a comprehensive understanding of the cellular processes that control this pathway. Here we describe a genome-wide siRNA screen to identify genes regulating the mouse macrophage IL-1 alpha response to cytosolic LPS.
# RAW264.7 cells were maintained in complete DMEM media, comprising DMEM with 4.5 g/L glucose, 10% FBS (Gemini Bio-Products, West Sacramento, CA), 2 mM Glutamine (Lonza) and 20 mM HEPES (Lonza), hereafter complete DMEM.
# The RNAi screen was conducted in 384-well format using the Ambion Silencer Mouse Genome siRNA Library (#4391425), which consists of three unique, nonoverlapping, nonpooled siRNAs for each of 17,000 gene targets. siRNA reagents ([…]) were stamped into 384-well white flat-bottom microplates (Corning, 3570) using a Velocity11 VPrep liquid handling system (Agilent) integrated into a BioCel robotic platform (Agilent) in columns 1-22, leaving columns 23-24 empty for negative (Ambion, Negative control #1) and positive (mouse Casp4) controls, respectively. The median value of each plate's negative control column was used to normalize sample wells, and the positive control was used to assess transfection efficiency and assay performance.
# Lipofectamine RNAiMAX Transfection Reagent ([…]; Invitrogen) was added in […] serum-free, antibiotic-free media to plate wells using a Thermo Scientific Matrix WellMate and Microplate Stacker. Plates were incubated for 45 min at room temperature to allow for the sufficient formation of siRNA-lipid complexes. Cells were seeded at a density of 1x10^4 cells per well in 20 microL media containing 20% (vol/vol) FBS without antibiotics. The final concentration of siRNA in each well was 100 nM. Cells were cultured for 48h at 37 degrees C in 5% CO2 before addition of […] of TLR ligand Pam3CSK4 for 5 hours. The medium was then removed, replaced with […] growth media and cell were transfected with […] of LipidA and TransIT-TKO (Mirus) for 24 hour. At the end of the LipidA treatment, […] of supernatant was transferred to a 384 Greiner Bio-one non-binding low volume plate and […] of IL-1a HTRF reagent (Cisbio, 62MIL1APEH) was added and incubated at room temperature overnight. The plates were read on an EnVision plate reader (PerkinElmer). Cell viability was measured by adding 20ul Cell Titer Glo to the original plate and running a luminescence read on the EnVision. The quantified IL-1a signal for each siRNA gene-targeted well was divided by the median of the negative control wells and multiplied by 100 to achieve a negative control normalized value for each well/siRNA. This normalized value was then used to generate a robust z-score by first taking the log of each value and then by subtracting the median and dividing by the […].
row,Sequence,z-score
1,GCCGCUGUCAAUAAAUGACTT against Phb,inactive: -0.0384
2,GGUAGAAAAGCUUCUGAAATT against Ap1g1,inactive: 0.349
3,GGAUUAAUCUGUGGAACUUTT against Ppp2r2b,inactive: -0.111
4,GGGAGGAAAUUAAAUUUCATT against Hif1an,inactive: -0.223
5,GCCUCAGAAUACCAGCUCATT against Gnat1,inactive: -0.186
6,CCUCAAAAAUGGGUACGGUTT against Srsf6,inactive: 1.27
7,GGACAUUUUAAUGUGCUCATT against Erlin2,inactive: 0.0602
8,GGAUAGCUAUGAACGUAGCTT against Lrrc14b,inactive: 1.05
9,CCUCCUUUUUUCUCUGUCUTT against Ugt1a9,active: -2.79
10,GGAGUGUAGUAAAUGUACCTT against Ppp1r13b,active: 3.97
11,CGUGAAAAUAGAAAGGUAATT against Rfk,inactive: 0.0645
12,GGGAGAAUGUUUUUCUUACTT against Vsig8,inactive: -0.956
13,CCACUAACAGCUCAUGUCATT against Rpe65,inactive: -0.152
14,GGAAGCUGCUUUUCUAAAUTT against Il7,active: 2.92
15,GGGAAUUUUGAAAAGGCUGTT against Nphp3,active: 2.12
16,GCUGACUGCUAAAAUCCAGTT against Spc25,inactive: -0.0782
17,GCUAGGUGAUCAGAGAACUTT against Nsl1,inactive: 0.222
18,GGAGCUUGACAUUCUGGAATT against Tmco4,inactive: 0.766
19,GGCUAGGAGAGUCUCCCUUTT against Rfx1,inactive: -0.556
20,GCAACUCUACUUGUCAAUUTT against Lypd8,inactive: 0.894
21,GGUGGACAAGACAAGCAUCTT against Ilvbl,inactive: -0.264
22,GGAAAACAAACCACAGCCATT against Tpbpa,active: -2.66

row,Sequence,z-score
1,GGAGAAAAUUGUCAAGAAGTT against Ift122,inactive: -0.824
2,GGAACAUUGGCAUCACGACTT against Acy1,inactive: 0.901
3,GCCCAAAGGUUCGUAAGGUTT against Rpl7,inactive: 1.01
4,CCAGUUCUUAACAUUGUGUTT against Syap1,inactive: -1.13
5,GCUAGCAACAUCAUUGAUGTT against Lamtor1,inactive: -0.747
6,GGAGUGUGAAGAGAUACAGTT against C9,inactive: 0.493
7,GGAUUCUCCAGACACCUUGTT against Styxl1,inactive: -0.704
8,GGGUAACAGAUACUGUUAUTT against Orai2,inactive: 0.554
9,GGACAAGAAAAAAAACCUGTT against Mrvi1,inactive: -0.113
10,GGAAGACAAGGUUUUAGCUTT against Ulbp1,inactive: 1.92
11,GGUCAAACAGGAAGACAGATT against Ubc,inactive: 0.645
12,GGGUCUCAGCAGUGCAAACTT against Txnip,inactive: -0.486
13,GGUCUUAACUGUGAACAACTT against Dner,inactive: 0.492
14,GGUUAUUGGCACUUUUAGATT against Ect2,inactive: 0.0504
15,GGUACUAAACACCAACUCCTT against Cd300a,inactive: 0.694
16,CCAGCUAGUGAUGUCAAAATT against Bri3bp,inactive: -0.0406
17,UGAGGAGAGUUUCCGAGUGTT against H2-Q6,inactive: -0.0985
18,GGGUGCAUAUGUUUGAAGCTT against Copb2,active: -2.5
19,GGAAAAAAAGGACAUUUCATT against Osmr,inactive: 1.54
20,GGACGUGGUGAAGUUUUAUTT against Folr2,inactive: 1.59
21,GGGUGGUGGCAUUAAACUUTT against Stk36,inactive: 1.75
22,GGGCUAUGUGCUCUUUUGUTT against S1pr4,inactive: 0.688

# Shown with bars between the fields: entries from further up
row | Sequence | z-score
10 | GGAGUGUAGUAAAUGUACCTT against Ppp1r13b | active: 3.97
21 | GGGUGGUGGCAUUAAACUUTT against Stk36 | inactive: 1.75

# The listing continues:

row,Sequence,z-score
1,GGGUAGAAUGUGUGUGUCUTT against Abhd15,active: -2.52
2,GCCAGUAACCAGAAAAUUGTT against Sycp3,active: -2.01
3,GGACAAAGAGGAAUGGAUATT against Tank,inactive: -1.19
4,GGCUAUAAAAAGAAGUACCTT against Pdgfrb,inactive: 1.63
5,CCAAUCUGCACCCUAUGUCTT against Cs,inactive: -1.11
6,CCAAGAUUAACCAUAACACTT against Mrpl50,inactive: 0.017
7,GCAACUCUUAUUUGGAUGCTT against Dbpht1,inactive: 0.489
8,GGAUGGUUGUGAGGAUUACTT against Paip1,inactive: 0.483
9,GGCAAAAUAACUGACUUCATT against Rps4x,inactive: 0.315
10,GGAAGAGGCCAGCUAUAACTT against Dcaf1,active: -2.51
11,GGAUGCUAGACAAGAAUCCTT against Camkk1,inactive: -0.654
12,GCUUACCAAAGGCUAUUUGTT against Anxa13,inactive: -0.108
13,GGAAAUGAUCCAUCAACUCTT against Rxfp1,inactive: 0.541
14,GCUCAAAUCUAAUAAGGACTT against Cdh3,inactive: -0.053
15,GGUGGAGACCCUGAUAAGUTT against Anks4b,inactive: -0.393
16,GGAACAACCUUAUACUACCTT against Rcl1,inactive: 0.903
17,GGACACACAUGGAAACUGGTT against Nr2f6,inactive: -0.965
18,GGCCGUACUAGAUUUUCUUTT against Olfr695,inactive: 1.35
19,GGUUUUCCAGAGAAACCACTT against Rhox7a,inactive: 0.505
20,CGACAGAGGAAAACAUAAATT against St13,active: -2.55
21,GCAAGAAGCCUGCCAAUAUTT against Etd,active: 2.05
22,GGGCAUGGACAAAAUUCUCTT against Cct2,inactive: 1.68

row,Sequence,z-score
1,GCUUUCUUGAGAUUACUCATT against Zcchc17,inactive: -1.53
2,GCCCUUACGUGGUAAAACCTT against Fndc3c1,inactive: 0.0746
3,GGCAAUAGCUACACCUUCATT against Csf1r,inactive: 1.9
4,GCAGGUGAAUCAGAUUGCUTT against LOC434448,inactive: -1.2
5,GGACAAGAAGGAAAAGAAATT against Brd4,active: -3.25
6,CCACAAUGACUGGAUUAAGTT against Atp6v1c1,inactive: 0.196
7,GGACACUUACGUCAUCGAGTT against Rtca,inactive: -0.814
8,GCUGUUGAAACGACACUCGTT against Aars2,inactive: -0.0434
9,GGUCGUGUACAAGUACAUATT against Mrps24,active: 2.24
10,GCCAAUACCAGCUUGACAUTT against LOC434448,inactive: 0.578
11,GGAGAUUCUGAUGAAGAAGTT against Isca1,inactive: 0.096
12,GGAAGAGUGACUUGUGCAATT against Slc28a2,inactive: 0.0125
13,CCUCCUCUCUGUUUUCUACTT against Olfr699,inactive: -1.16
14,GGAUGUUAUUCGCCACGCGTT against Zfp335,inactive: -0.134
15,CCUACACAAAAUCACUUUGTT against Spata1,inactive: -0.402
16,GGUGGGAACCUGUACUCUATT against Pld2,inactive: -1.54
17,GCUCCGUGUUGACUCAAAATT against Foxg1,active: 2.46
18,GGCUCUUAUCAAGAAAUCUTT against Elp5,inactive: -1.61
19,GCGAAUUGGAACAGCUGACTT against Sh3glb1,inactive: -0.982
20,GGUAGAAAAAACACAAACGTT against Ppp2r3c,inactive: 1.43
21,GGCAUUGAAUUACUUACAUTT against Slk,active: 2.46
22,GGAUCUCUAACUUCACCAGTT against Katnbl1,inactive: 0.691

# Fetched one by one from above:
row,Sequence,z-score
11,GGAGAUUCUGAUGAAGAAGTT against Isca1,inactive: 0.096
13,CCUCCUCUCUGUUUUCUACTT against Olfr699,inactive: -1.16
10,GCCAAUACCAGCUUGACAUTT against LOC434448,inactive: 0.578
19,GCGAAUUGGAACAGCUGACTT against Sh3glb1,inactive: -0.982

# Additional entries

row,Sequence,z-score
1,GCCUGAGGAAUCGUGACAUTT against Olfr51,inactive: -1.58
2,GGAGAUAAAUGUGUAGACCTT against Matn3,inactive: 0.915
3,GCCACCAUGUGCAACAUACTT against Ifit2,inactive: 0.145
4,CGGAAGGAAGUGCCUAAACTT against Rcc2,inactive: 0.668
5,GGUCACACCCAUAAACUAATT against B630019K06Rik,inactive: -0.167
6,GGAGACAUCAUCUGAAUAUTT against Hnmt,inactive: -0.431
7,CAACUCCGGAAGACCAGGATT against Kpna7,inactive: -0.319
8,GCCCAUGGGUACAUGCAAUTT against 1810065E05Rik,inactive: 0.328
9,GCCGAUGUAUCUACUUUGCTT against Rnase6,inactive: 0.323
10,CGUGAAGGAAACUUUUCAGTT against Prmt9,inactive: -1.45
11,GGUUCUCAGAGCCAGAAAUTT against Prl8a2,inactive: -0.124
12,GCAACAUCGUAUGUUAAUGTT against Slc9a4,inactive: 0.0571
13,GGCUAAUCACUAGAUUAGATT against Ldb2,inactive: -0.397
14,GCGAACUAUUCAAAAGUUATT against 4921504E06Rik,inactive: 0.265
15,GGUUGCUAUUAUUAUUGGATT against Fnbp4,inactive: 0.678
16,GGAGACAGAGAUCAUUGAATT against Ruvbl2,inactive: -1.94
17,GGAAAUUAUGACAUGCACCTT against Eya3,inactive: -0.699
18,GGCUAUACUGUCAAUGUAUTT against Nsdhl,inactive: -0.656
19,GGUGCAGUCUUAGGGAGGUTT against Rps6kb1,inactive: 1.03
20,CGACUGCUUAAUGAUUCCCTT against Pfdn4,inactive: -1.5
